Results from the supplement of paper PMC8728848.
This is one part of the list.

Columns and labels:
Assay in all cases: glycan array binding signal (z-score within array); higher = stronger binding
Settings in all cases: glycan notation: IUPAC condensed, linker removed
Fuc(a1-3)GlcNAc = biological target: Fuc(a1-3)GlcNAc
Procedure, shortened: (§1)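 Glycan array data were curated from 3228 arrays in the Consortium for Functional Glycomics database and kept only where the protein sequence was available. Glycan names were converted to IUPAC-condensed notation, and columns mapping to the same glycan were averaged. The binding signal is a within-array Z-score, averaged across arrays of the same protein sequence at different concentrations or buffers and across linkers. Negative Z-scores can be read as non-binding.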

[1] = biological target: Fuc(a1-3)[Gal(b1-4)]Glc6S
Procedure, shortened: as §1

[2] = biological target: Fuc(a1-3)[Gal(b1-4)]GlcNAc
Procedure, shortened: as §1

[3] = biological target: Fuc(a1-3)[Gal(b1-4)]GlcNAc(b1-2)Man
Procedure, shortened: as §1

[4] = biological target: Fuc(a1-3)[Gal(b1-4)]GlcNAc(b1-2)Man(a1-3)[Fuc(a1-3)[Gal(b1-4)]GlcNAc(b1-2)Man(a1-6)]Man(b1-4)GlcNAc(b1-4)GlcNAc
Procedure, shortened: as §1

[5] = biological target: Fuc(a1-3)[Gal(b1-4)]GlcNAc(b1-2)Man(a1-3)[Fuc(a1-3)[Gal(b1-4)]GlcNAc(b1-2)Man(a1-6)]Man(b1-4)GlcNAc(b1-4)[Fuc(a1-6)]GlcNAc
Procedure, shortened: as §1

[6] = biological target: Fuc(a1-3)[Gal(b1-4)]GlcNAc(b1-3)Gal(b1-3)[Fuc(a1-4)]GlcNAc
Procedure, shortened: as §1

[7] = biological target: Fuc(a1-3)[Gal(b1-4)]GlcNAc(b1-3)Gal(b1-4)[Fuc(a1-3)]GlcNAc
Procedure, shortened: as §1

[8] = biological target: Fuc(a1-3)[Gal(b1-4)]GlcNAc(b1-3)Gal(b1-4)[Fuc(a1-3)]GlcNAc(b1-3)Gal(b1-4)[Fuc(a1-3)]GlcNAc
Procedure, shortened: as §1

[9] = biological target: Fuc(a1-3)[Gal(b1-4)]GlcNAc(b1-3)GalNAc
Procedure, shortened: as §1

[10] = biological target: Fuc(a1-3)[Gal(b1-4)]GlcNAc(b1-6)GalNAc
Procedure, shortened: as §1

[11] = biological target: Fuc(a1-3)[Gal(b1-4)]GlcNAc(b1-6)[Gal(b1-3)GlcNAc(b1-3)]Gal(b1-4)Glc
Procedure, shortened: as §1

[12] = biological target: Fuc(a1-3)[Gal(b1-4)]GlcNAc6S
Procedure, shortened: as §1

[13] = biological target: Fuc(a1-3)[Gal3S(b1-4)]Glc
Procedure, shortened: as §1

[14] = biological target: Fuc(a1-3)[Gal3S(b1-4)]GlcNAc
Procedure, shortened: as §1

[15] = biological target: Fuc(a1-3)[Gal3S(b1-4)]GlcNAc6S
Procedure, shortened: as §1

[16] = biological target: Fuc(a1-3)[GalNAc(b1-4)]GlcNAc
Procedure, shortened: as §1

[17] = biological target: Fuc(a1-3)[GalNAc(b1-4)]GlcNAc6S
Procedure, shortened: as §1

Fuc(a1-4)GlcNAc = biological target: Fuc(a1-4)GlcNAc
Procedure, shortened: as §1

Fuc(b1-3)GlcNAc = biological target: Fuc(b1-3)GlcNAc
Procedure, shortened: as §1

Gal(a1-2)Gal = biological target: Gal(a1-2)Gal
Procedure, shortened: as §1

Gal(a1-3)Gal = biological target: Gal(a1-3)Gal
Procedure, shortened: as §1

Gal(a1-3)Gal(b1-3)GlcNAc = biological target: Gal(a1-3)Gal(b1-3)GlcNAc
Procedure, shortened: as §1

[18] = biological target: Gal(a1-3)Gal(b1-3)GlcNAc(b1-2)Man
Procedure, shortened: as §1

[19] = biological target: Gal(a1-3)Gal(b1-3)GlcNAc(b1-2)Man(a1-3)[Gal(a1-3)Gal(b1-3)GlcNAc(b1-2)Man(a1-6)]Man(b1-4)GlcNAc(b1-4)GlcNAc
Procedure, shortened: as §1

[20] = biological target: Gal(a1-3)Gal(b1-3)GlcNAc(b1-3)GalNAc
Procedure, shortened: as §1

[21] = biological target: Gal(a1-3)Gal(b1-3)GlcNAc(b1-6)GalNAc
Procedure, shortened: as §1

[22] = biological target: Gal(a1-3)Gal(b1-3)[Fuc(a1-4)]GlcNAc(b1-2)Man(a1-3)[Gal(a1-3)Gal(b1-3)[Fuc(a1-4)]GlcNAc(b1-2)Man(a1-6)]Man(b1-4)GlcNAc(b1-4)GlcNAc
Procedure, shortened: as §1

Gal(a1-3)Gal(b1-4)Glc = biological target: Gal(a1-3)Gal(b1-4)Glc
Procedure, shortened: as §1

Gal(a1-3)Gal(b1-4)GlcNAc = biological target: Gal(a1-3)Gal(b1-4)GlcNAc
Procedure, shortened: as §1

[23] = biological target: Gal(a1-3)Gal(b1-4)GlcNAc(b1-2)Man
Procedure, shortened: as §1

[24] = biological target: Gal(a1-3)Gal(b1-4)GlcNAc(b1-2)Man(a1-3)[Gal(a1-3)Gal(b1-4)GlcNAc(b1-2)Man(a1-6)]Man(b1-4)GlcNAc(b1-4)GlcNAc
Procedure, shortened: as §1

[25] = biological target: Gal(a1-3)Gal(b1-4)GlcNAc(b1-3)GalNAc
Procedure, shortened: as §1

[26] = biological target: Gal(a1-3)Gal(b1-4)GlcNAc(b1-6)GalNAc
Procedure, shortened: as §1

[27] = biological target: Gal(a1-3)Gal(b1-4)[Fuc(a1-3)]GlcNAc
Procedure, shortened: as §1

[28] = biological target: Gal(a1-3)Gal(b1-4)[Fuc(a1-3)]GlcNAc(b1-2)Man(a1-3)[Gal(a1-3)Gal(b1-4)[Fuc(a1-3)]GlcNAc(b1-2)Man(a1-6)]Man(b1-4)GlcNAc(b1-4)GlcNAc
Procedure, shortened: as §1

Gal(a1-3)GalNAc = biological target: Gal(a1-3)GalNAc
Procedure, shortened: as §1

B1: Nc3LysM-2 (protein)
chain: AHVLQARQSVSCDFATAANTGDTCASFAAAWGITEAAFAKLNPGVSCPGNLIAGSEYCVIGTVSTGAPTTTKAATTSTTPPTTTTTTKATTLSTSTTSVSPTGPSPQMPSITSTCNKFYQVQSGDGCWSIEQAQGVSASDFMAWNKAVDAQCDNLWLGYYVCVGVKGGSSPPPTTTTKPASSSAPTPQMPNTVSNCKKFHKVVSGDGCWAIEQAAGISASDFAKWNPYVDAACDNLWLGYYVCIGV
Fuc(a1-3)GlcNAc
  glycan array binding signal (z-score): -0.094
[1]
  glycan array binding signal (z-score): -0.823
[2]
  glycan array binding signal (z-score): -0.073
[3]
  glycan array binding signal (z-score): -1.36
[4]
  glycan array binding signal (z-score): 0.528
[5]
  glycan array binding signal (z-score): -0.121
[6]
  glycan array binding signal (z-score): -1.41
[7]
  glycan array binding signal (z-score): -0.714
[8]
  glycan array binding signal (z-score): 1.02
[9]
  glycan array binding signal (z-score): -0.088
[10]
  glycan array binding signal (z-score): -1.23
[11]
  glycan array binding signal (z-score): -0.829
[12]
  glycan array binding signal (z-score): -1.07
[13]
  glycan array binding signal (z-score): 0.532
[14]
  glycan array binding signal (z-score): -0.279
[15]
  glycan array binding signal (z-score): 0.033
[16]
  glycan array binding signal (z-score): -0.263
[17]
  glycan array binding signal (z-score): -1.46
Fuc(a1-4)GlcNAc
  glycan array binding signal (z-score): -0.095
Fuc(b1-3)GlcNAc
  glycan array binding signal (z-score): 0.734
Gal(a1-2)Gal
  glycan array binding signal (z-score): -1.15
Gal(a1-3)Gal
  glycan array binding signal (z-score): 0.678
Gal(a1-3)Gal(b1-3)GlcNAc
  glycan array binding signal (z-score): -0.135
[18]
  glycan array binding signal (z-score): -1.17
[19]
  glycan array binding signal (z-score): -1.13
[20]
  glycan array binding signal (z-score): -0.589
[21]
  glycan array binding signal (z-score): -0.054
[22]
  glycan array binding signal (z-score): -0.092
Gal(a1-3)Gal(b1-4)Glc
  glycan array binding signal (z-score): -1.12
Gal(a1-3)Gal(b1-4)GlcNAc
  glycan array binding signal (z-score): 0.363
[23]
  glycan array binding signal (z-score): -0.456
[24]
  glycan array binding signal (z-score): 0.002
[25]
  glycan array binding signal (z-score): -1.6
[26]
  glycan array binding signal (z-score): -1.26
[27]
  glycan array binding signal (z-score): -1.39
[28]
  glycan array binding signal (z-score): -0.056
Gal(a1-3)GalNAc
  glycan array binding signal (z-score): 0.707
